In PMC2832003:
Where two headings read alike, the source gives them in different places. Results are given in words; binding and its absence hold for the method and conditions named. For some assays here: Binding seen in cells or lysates may run through a third protein. Some entries that bind do so weakly or less than the wild type.

Chains of the proteins cited; added tags and fusions are not shown. Residues count along the entry.
UniProt P38445, residues 19-513: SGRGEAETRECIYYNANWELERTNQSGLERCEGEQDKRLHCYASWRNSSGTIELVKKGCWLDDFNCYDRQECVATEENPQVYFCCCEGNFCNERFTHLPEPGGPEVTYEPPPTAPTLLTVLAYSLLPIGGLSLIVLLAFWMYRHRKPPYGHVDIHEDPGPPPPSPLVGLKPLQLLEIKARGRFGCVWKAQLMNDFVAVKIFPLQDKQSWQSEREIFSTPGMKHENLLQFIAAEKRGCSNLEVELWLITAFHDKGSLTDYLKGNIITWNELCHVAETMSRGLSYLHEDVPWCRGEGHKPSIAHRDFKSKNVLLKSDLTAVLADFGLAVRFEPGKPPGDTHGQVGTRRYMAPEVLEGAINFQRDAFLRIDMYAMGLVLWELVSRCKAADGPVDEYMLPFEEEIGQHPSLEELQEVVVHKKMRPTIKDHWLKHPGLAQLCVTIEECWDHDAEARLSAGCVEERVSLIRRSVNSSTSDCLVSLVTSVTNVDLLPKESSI
UniProt P08476, residues 311-426: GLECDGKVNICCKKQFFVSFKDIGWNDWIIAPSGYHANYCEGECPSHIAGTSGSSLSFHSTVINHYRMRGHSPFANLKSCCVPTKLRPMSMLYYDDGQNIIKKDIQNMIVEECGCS

Experiments:
rat ActRIIB-HA (rat) = rat ActRIIB-HA (rat) (UniProt P38445); test: co-IP; COS7 cells transfected with rat ActRIIB-HA and either betaglycan-c-myc or empty pcDNA3, treated 2 h with 100 ng/ml ligand in concentrated media, lysed, anti-HA precipitation, blot with anti-βA polyclonal antibody
[1] = target: human activin/inhibin βA-subunit (mature) (human) (UniProt P08476); test: non-reducing SDS-PAGE and immunoblot of secreted dimers; conditioned media of stably transfected CHO cells, 4-12% SDS-PAGE under non-reducing (and reducing) conditions, detected with anti-βA polyclonal or anti-α-subunit PO23 antibody
[2] = target: chicken inhibin α-subunit (mature αC) (chicken) (UniProt P43031); test: as above
[3] = target: human activin/inhibin βA-subunit (mature) (human) (UniProt P08476); test: as above; remark: listed apart in the source
[4] = target: chicken inhibin α-subunit (mature αC) (chicken) (UniProt P43031); test: immunoprecipitation of [35S]-cysteine-labelled media, non-reducing SDS-PAGE and autoradiography; media of cells labelled 48 h with [35S]-cysteine, precipitated with anti-α-subunit monoclonal PO23 or normal mouse IgG, Protein G Sepharose, 4-12% non-reducing gel
[5] = target: chicken inhibin α-subunit (mature αC) (chicken) (UniProt P43031); test: tandem MS-MS of a band from a non-reducing gel; medium of cells expressing the chicken free α-subunit, precipitated with PO23, non-reducing SDS-PAGE, 30 kDa band digested with trypsin
[6] = target: human inhibin α-subunit (mature αC) (human) (UniProt P05111); test: immunoprecipitation of [35S]-cysteine-labelled media, non-reducing SDS-PAGE and autoradiography; media of cells labelled 48 h with [35S]-cysteine, precipitated with anti-α-subunit monoclonal PO23 or normal mouse IgG, Protein G Sepharose, 4-12% non-reducing gel

For “wild type chicken inhibin A (α^Chwt/βA) (from UniProt P43031 217-329; P08476 311-426) (complex)”, the binding (rat ActRIIB-HA (rat)) was “binds”.

With “human activin/inhibin βA-subunit (mature) (from UniProt P08476 311-426)” the binding [1] was “binds”.

B1: chicken inhibin α-subunit (mature αC) (protein, UniProt P43031 217-329)
chain: SAVPWSPAALSLLQRPSEDVAAHTNCRRASLNISFEELGWDNWIVHPSSFVFHYCHGNCAEGHGLSHRLGVQLCCAALPGTMRSLRVRTTSDGGYSFKYETVPNILAQDCTCV
With B1 the binding [2] was “binds weakly”, the binding [3] was “binds” and the binding [4] was “binds weakly”. For the same molecule, the binding [5] was “binds weakly”.

B2: human inhibin α-subunit (mature αC) (protein, UniProt P05111 233-366)
chain: STPLMSWPWSPSALRLLQRPPEEPAAHANCHRVALNISFQELGWERWIVYPPSFIFHYCHGGCGLHIPPNLSLPVPGAPPTPAQPYSLLPGAQPCCAALPGTMRPLHVRTTSDGGYSFKYETVPNLLTQHCACI
For B2, the binding [3] was “binds” and the binding [6] was “no binding”.
